# This is one part of the list.
# What was measured:
# Assay in all cases: glycan array binding signal (z-score within array); higher = stronger binding
# Settings in all cases: glycan notation: IUPAC condensed, linker removed
# [1] = target: Neu5Ac(a2-3)Gal(b1-4)GlcNAc(b1-3)[Neu5Ac(a2-3)Gal(b1-4)GlcNAc(b1-6)]GalNAc
# Outline: (§1)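 Glycan array data came from 3228 arrays in the Consortium for Functional Glycomics database, and only arrays with an available protein sequence were kept. Glycan names were put into IUPAC-condensed notation, and columns mapping to the same glycan were averaged. The binding signal is a within-array Z-score, averaged across arrays of one protein sequence run at different concentrations or buffers and across linkers. A negative Z-score can be read as non-binding.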
# [2] = target: Neu5Ac(a2-3)Gal(b1-4)GlcNAc(b1-6)GalNAc
# Outline: as §1
# [3] = target: Neu5Ac(a2-3)Gal(b1-4)GlcNAc(b1-6)[Gal(b1-3)]GalNAc
# Outline: as §1
# [4] = target: Neu5Ac(a2-3)Gal(b1-4)GlcNAc(b1-6)[Neu5Ac(a2-3)Gal(b1-3)]GalNAc
# Outline: as §1
# [5] = target: Neu5Ac(a2-3)Gal(b1-4)GlcNAc6S
# Outline: as §1
# [6] = target: Neu5Ac(a2-3)Gal(b1-4)[Fuc(a1-3)]GlcNAc
# Outline: as §1
# [7] = target: Neu5Ac(a2-3)Gal(b1-4)[Fuc(a1-3)]GlcNAc(b1-2)Man
# Outline: as §1
# [8] = target: Neu5Ac(a2-3)Gal(b1-4)[Fuc(a1-3)]GlcNAc(b1-3)Gal
# Outline: as §1
# [9] = target: Neu5Ac(a2-3)Gal(b1-4)[Fuc(a1-3)]GlcNAc(b1-3)Gal(b1-4)GlcNAc
# Outline: as §1
# [10] = target: Neu5Ac(a2-3)Gal(b1-4)[Fuc(a1-3)]GlcNAc(b1-3)Gal(b1-4)[Fuc(a1-3)]GlcNAc(b1-3)Gal(b1-4)[Fuc(a1-3)]GlcNAc
# Outline: as §1
# [11] = target: Neu5Ac(a2-3)Gal(b1-4)[Fuc(a1-3)]GlcNAc(b1-3)GalNAc
# Outline: as §1
# [12] = target: Neu5Ac(a2-3)Gal(b1-4)[Fuc(a1-3)]GlcNAc(b1-6)[Gal(b1-3)]GalNAc
# Outline: as §1
# [13] = target: Neu5Ac(a2-3)Gal(b1-4)[Fuc(a1-3)]GlcNAc(b1-6)[Neu5Ac(a2-3)Gal(b1-3)]GalNAc
# Outline: as §1
# [14] = target: Neu5Ac(a2-3)Gal(b1-4)[Fuc(a1-3)]GlcNAc6S
# Outline: as §1
# [15] = target: Neu5Ac(a2-3)Gal6S(b1-4)GlcNAc
# Outline: as §1
# [16] = target: Neu5Ac(a2-3)Gal6S(b1-4)[Fuc(a1-3)]GlcNAc
# Outline: as §1
# [17] = target: Neu5Ac(a2-3)GalNAc
# Outline: as §1
# [18] = target: Neu5Ac(a2-3)GalNAc(b1-4)GlcNAc
# Outline: as §1
# [19] = target: Neu5Ac(a2-3)[GalNAc(b1-4)]Gal(b1-4)Glc
# Outline: as §1
# [20] = target: Neu5Ac(a2-3)[GalNAc(b1-4)]Gal(b1-4)GlcNAc
# Outline: as §1
# [21] = target: Neu5Ac(a2-3)[GalNAc(b1-4)]Gal(b1-4)GlcNAc(b1-3)GalNAc
# Outline: as §1
# [22] = target: Neu5Ac(a2-3)[Neu5Ac(a2-6)]GalNAc
# Outline: as §1
binder,measurement,setting,value
"AT5G24760(45) (Arabidopsis thaliana), Q8LEB2 (protein) MSASSSSFEQPQVITCNAAVAWRAGEPLVMEEVEVSPPQPLEIRIKVVCTSLCRSDLSAWESQSLLPRIFGHEAAGIVESIGEGVTEFEKGDHVLAVFTGECGSCRHCISGKSNMCQVLGMERKGLMHSDQKTRFSIKGKPVYHYCAVSSFSEYTVVHSGCAVKVDPLAPLHKICLLSCGVAAGLGAAWNVADVQKGSSVVIFGLGTVGLSVAQGAKLRGAAQILGVDINPAKAEQAKTFGVTDFINSNDLSEPIPQVIKRMTGGGADFSFECVGDTGIATTALQSCSDGWGMTVTLGVPKAKPEVSAHYGLFLSGKSLKGTLFGGWKPKSDLPSLIDKYMNKEIMIDEFITHNLSFDEINKAFVLMREGKCLRCVLHMPK",glycan array binding signal (z-score),[1],-1.2
same,glycan array binding signal (z-score),[2],-0.781
same,glycan array binding signal (z-score),[3],-0.861
same,glycan array binding signal (z-score),[4],-0.686
same,glycan array binding signal (z-score),[5],-0.72
same,glycan array binding signal (z-score),[6],-0.565
same,glycan array binding signal (z-score),[7],-0.148
same,glycan array binding signal (z-score),[8],-0.085
same,glycan array binding signal (z-score),[9],0.773
same,glycan array binding signal (z-score),[10],-0.878
same,glycan array binding signal (z-score),[11],3.17
same,glycan array binding signal (z-score),[12],0.591
same,glycan array binding signal (z-score),[13],2.76
same,glycan array binding signal (z-score),[14],-0.909
same,glycan array binding signal (z-score),[15],0.378
same,glycan array binding signal (z-score),[16],-0.538
same,glycan array binding signal (z-score),[17],-0.101
same,glycan array binding signal (z-score),[18],1.09
same,glycan array binding signal (z-score),[19],-0.661
same,glycan array binding signal (z-score),[20],-0.717
same,glycan array binding signal (z-score),[21],0.231
same,glycan array binding signal (z-score),[22],-0.479

# Looked up one by one from the list above (two):
binder,measurement,setting,value
"AT5G24760(45) (Arabidopsis thaliana), Q8LEB2 (protein) MSASSSSFEQPQVITCNAAVAWRAGEPLVMEEVEVSPPQPLEIRIKVVCTSLCRSDLSAWESQSLLPRIFGHEAAGIVESIGEGVTEFEKGDHVLAVFTGECGSCRHCISGKSNMCQVLGMERKGLMHSDQKTRFSIKGKPVYHYCAVSSFSEYTVVHSGCAVKVDPLAPLHKICLLSCGVAAGLGAAWNVADVQKGSSVVIFGLGTVGLSVAQGAKLRGAAQILGVDINPAKAEQAKTFGVTDFINSNDLSEPIPQVIKRMTGGGADFSFECVGDTGIATTALQSCSDGWGMTVTLGVPKAKPEVSAHYGLFLSGKSLKGTLFGGWKPKSDLPSLIDKYMNKEIMIDEFITHNLSFDEINKAFVLMREGKCLRCVLHMPK",glycan array binding signal (z-score),[18],1.09
same,glycan array binding signal (z-score),[14],-0.909
